Assay results reported in PMC10432269, “Diverse modes of H3K36me3-guided nucleosomal deacetylation by Rpd3S” (Nature, 2023).
Results are given in words; binding and its absence hold for the method and conditions named. Some results given as binding are weak or reduced against the parent protein; the word gives no strength.

Chains of the proteins cited; added tags and fusions are not shown.
UniProt P22579: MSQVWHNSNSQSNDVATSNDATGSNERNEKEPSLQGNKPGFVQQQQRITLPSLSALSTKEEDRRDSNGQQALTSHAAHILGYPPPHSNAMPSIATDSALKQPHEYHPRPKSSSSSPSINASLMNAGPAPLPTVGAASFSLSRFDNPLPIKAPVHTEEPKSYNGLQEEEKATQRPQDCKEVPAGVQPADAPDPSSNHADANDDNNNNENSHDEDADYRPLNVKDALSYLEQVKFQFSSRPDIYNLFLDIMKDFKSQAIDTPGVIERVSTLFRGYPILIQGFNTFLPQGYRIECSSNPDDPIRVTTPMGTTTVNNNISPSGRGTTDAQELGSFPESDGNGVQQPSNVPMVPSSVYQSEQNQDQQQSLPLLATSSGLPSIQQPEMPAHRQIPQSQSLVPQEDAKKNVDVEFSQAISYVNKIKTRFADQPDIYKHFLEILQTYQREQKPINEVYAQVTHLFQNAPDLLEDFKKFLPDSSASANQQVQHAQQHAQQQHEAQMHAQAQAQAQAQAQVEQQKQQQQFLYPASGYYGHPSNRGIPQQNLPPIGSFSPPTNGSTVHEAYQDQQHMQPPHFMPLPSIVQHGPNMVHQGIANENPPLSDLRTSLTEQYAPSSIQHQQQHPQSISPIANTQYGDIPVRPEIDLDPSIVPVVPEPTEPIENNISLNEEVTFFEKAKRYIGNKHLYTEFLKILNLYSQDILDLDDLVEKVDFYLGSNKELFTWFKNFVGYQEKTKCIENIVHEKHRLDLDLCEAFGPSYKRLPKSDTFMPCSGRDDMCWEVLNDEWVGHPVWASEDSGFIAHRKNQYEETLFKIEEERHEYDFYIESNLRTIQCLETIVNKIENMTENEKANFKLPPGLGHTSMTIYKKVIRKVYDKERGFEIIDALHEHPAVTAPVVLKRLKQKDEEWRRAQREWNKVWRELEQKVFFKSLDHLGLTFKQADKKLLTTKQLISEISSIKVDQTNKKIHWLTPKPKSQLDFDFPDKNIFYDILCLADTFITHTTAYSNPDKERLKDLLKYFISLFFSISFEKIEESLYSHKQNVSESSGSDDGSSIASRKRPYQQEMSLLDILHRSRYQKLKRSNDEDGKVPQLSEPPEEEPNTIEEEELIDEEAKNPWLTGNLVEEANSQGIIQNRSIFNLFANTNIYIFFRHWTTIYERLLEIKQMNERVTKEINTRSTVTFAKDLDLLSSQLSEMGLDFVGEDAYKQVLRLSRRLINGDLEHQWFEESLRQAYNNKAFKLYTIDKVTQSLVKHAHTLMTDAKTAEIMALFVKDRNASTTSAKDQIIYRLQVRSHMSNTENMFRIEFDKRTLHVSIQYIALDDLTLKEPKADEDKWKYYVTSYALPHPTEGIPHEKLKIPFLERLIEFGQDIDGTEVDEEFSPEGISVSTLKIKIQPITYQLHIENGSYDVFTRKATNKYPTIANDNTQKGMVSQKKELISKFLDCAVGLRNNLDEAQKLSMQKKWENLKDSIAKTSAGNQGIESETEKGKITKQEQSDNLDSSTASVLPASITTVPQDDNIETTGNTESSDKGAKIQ
UniProt Q12432: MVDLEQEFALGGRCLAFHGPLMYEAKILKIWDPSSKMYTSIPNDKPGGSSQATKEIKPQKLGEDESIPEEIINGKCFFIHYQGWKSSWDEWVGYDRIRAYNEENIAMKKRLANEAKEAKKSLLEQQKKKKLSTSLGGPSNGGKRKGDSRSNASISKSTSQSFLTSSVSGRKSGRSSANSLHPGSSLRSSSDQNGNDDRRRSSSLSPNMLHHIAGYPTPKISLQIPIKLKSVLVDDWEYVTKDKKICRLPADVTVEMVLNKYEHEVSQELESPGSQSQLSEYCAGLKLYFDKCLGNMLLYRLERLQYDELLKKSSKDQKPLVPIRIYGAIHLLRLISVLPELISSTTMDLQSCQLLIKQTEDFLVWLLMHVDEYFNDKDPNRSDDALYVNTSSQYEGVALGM

What was measured:
Rco1 (S. cerevisiae) [1] = molecular target: T1, Rco1 (S. cerevisiae) (UniProt Q04779); experiment: cryo-EM structure; free Rpd3S complex, subunits co-expressed in Sf9 and purified together; stabilised by GraFix (glycerol gradient with 0.15% glutaraldehyde); 3.2 Å overall, local maps 2.7 Å and 3.2 Å; both purified
T1 sequence: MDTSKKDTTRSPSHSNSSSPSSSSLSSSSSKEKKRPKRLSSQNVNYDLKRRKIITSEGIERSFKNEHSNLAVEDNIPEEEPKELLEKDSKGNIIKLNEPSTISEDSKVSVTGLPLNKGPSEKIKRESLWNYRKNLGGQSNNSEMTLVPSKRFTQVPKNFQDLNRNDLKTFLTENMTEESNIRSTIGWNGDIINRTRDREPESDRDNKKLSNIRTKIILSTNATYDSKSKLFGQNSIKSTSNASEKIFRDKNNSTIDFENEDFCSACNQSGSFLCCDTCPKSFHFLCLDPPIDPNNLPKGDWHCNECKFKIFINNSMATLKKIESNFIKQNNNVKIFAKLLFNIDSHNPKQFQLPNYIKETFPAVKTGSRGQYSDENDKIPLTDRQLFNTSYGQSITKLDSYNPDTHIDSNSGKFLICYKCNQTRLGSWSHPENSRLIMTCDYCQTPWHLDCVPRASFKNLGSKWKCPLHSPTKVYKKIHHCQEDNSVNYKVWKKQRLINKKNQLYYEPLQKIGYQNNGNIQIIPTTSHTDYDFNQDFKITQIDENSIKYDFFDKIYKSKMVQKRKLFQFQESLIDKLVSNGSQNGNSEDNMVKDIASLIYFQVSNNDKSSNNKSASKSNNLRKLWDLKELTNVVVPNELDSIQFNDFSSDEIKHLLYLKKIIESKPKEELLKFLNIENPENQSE

Rpd3 (S. cerevisiae) = molecular target: T2, Rpd3 (S. cerevisiae) (UniProt P32561); experiment: as above
T2 sequence: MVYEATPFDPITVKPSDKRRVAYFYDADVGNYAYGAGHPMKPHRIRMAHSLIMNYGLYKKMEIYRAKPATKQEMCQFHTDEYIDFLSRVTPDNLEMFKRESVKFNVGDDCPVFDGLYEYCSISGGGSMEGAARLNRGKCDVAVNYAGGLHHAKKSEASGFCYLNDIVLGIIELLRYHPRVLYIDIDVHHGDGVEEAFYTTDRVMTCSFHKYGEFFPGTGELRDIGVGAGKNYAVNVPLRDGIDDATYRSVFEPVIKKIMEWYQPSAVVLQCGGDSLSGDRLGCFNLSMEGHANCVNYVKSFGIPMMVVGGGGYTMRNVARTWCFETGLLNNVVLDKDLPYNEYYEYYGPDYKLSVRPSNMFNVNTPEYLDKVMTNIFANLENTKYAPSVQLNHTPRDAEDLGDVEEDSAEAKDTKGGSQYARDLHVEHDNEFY

Sin3 (S. cerevisiae) = Sin3 (S. cerevisiae) (UniProt P22579); experiment: as above
Rco1 (S. cerevisiae) [2] = molecular target: T1, Rco1 (S. cerevisiae); experiment: SEC; subunits co-expressed in Sf9; complex captured from the lysate on strep beads by Strep-Rco1, anion exchange, Superose 6; peak fractions on SDS-PAGE with Coomassie staining

Molecule: Eaf3 (from UniProt Q12432 1-401)
- binding (Rco1 (S. cerevisiae) [1]): binds
- binding (Rpd3 (S. cerevisiae)): binds

B1: Rco1 (natural protein, S. cerevisiae, UniProt Q04779 1-684, looked up)
chain: T1 sequence
notes: Rco1, S. cerevisiae, full length; residues 107-565 (Rco1-A) and 262-358 (Rco1-B) are modelled in the structure; The complex was captured on strep beads by the Strep-tag of Rco1; the tag was then cleaved with TEV protease before anion exchange and SEC; Two copies (Rco1-A, Rco1-B) stand in the Rpd3S complex; also called Rco1-A; Rco1-B; not shown: Strep-tag, N-terminal, cleaved
- binding (Rpd3 (S. cerevisiae)): binds
- binding (Sin3 (S. cerevisiae)): binds

B2: Ume1 (protein, UniProt Q03010 1-460)
chain: MSTLDIAEDNKIKNEEFKIWKKSIPSLYQHISSLKPIFGSGVDESPSTLRSIVFTNDSSCNKSKGVLSVPLLYSQGSEIFEVDCIVPLGLHYKKPESISEPLVQPDYTMESQKVEQTVLIPKWEFKGETIAKMIYVDNSEINVKVIALSTNGSLAWFREGVKSPVYTMMEPSTSLSSASSGNQNKPCVDFAISNDSKTLTVTKEKHLDNENATIKLIDNSGKIGEVLRTIPVPGIKNIQEIKFLNNQIFATCSDDGIIRFWGNEIGKKPLWILNDSLDGKTTCFAASPFVDTLFMTGTSGGALKVWDIRAVIALGDADAELNINQGHNKVNELFKVHHFYSEQVSKIEFSSISPMEVVTIGGLGNVYHWNFEPVFAIYNEIHEDFQGIISDELEAESMAFYHTEGCRREIGENNKVNTVAYHKYIEDLVATVDSDGLLTVYKPFTGKVLDGSREVGAAKS
- binding (Rco1 (S. cerevisiae) [2]): binds
